Test results: patent publication US7081343
These are yes or no findings as the source states them, for the method shown. For some assays here: In cells and extracts the contact can be indirect. Some binding calls cover weakened binding; strength is not graded here. For some assays here: Where a sequence is shown, tags or fusion partners need not be part of it. Values belong to the binder of their own block, whether it stands above or below them.

Tests used:
Settings in all cases: remark: other sources report otherwise
T7-RelA, Q04206 [1] = assay: co-immunoprecipitation (FIG. 3B)
T7-RelA, Q04206 [2] = assay: co-immunoprecipitation (FIG. 3F)
T7-RelA, Q04206 [3] = assay: co-immunoprecipitation from co-transfected COS-7 cells
T7-RelA, Q04206 [4] = assay: co-immunoprecipitation from transfected COS7 cells (anti-T7 IP, anti-Flag blot)
[5] = biological target: endogenous RelA of untransfected HeLa cells (human), Q04206; assay: co-immunoprecipitation (FIG. 3G)
[6] = biological target: endogenous RelA of untransfected HeLa cells (human), Q04206; assay: co-immunoprecipitation of endogenous proteins from untransfected HeLa cells
[7] = biological target: endogenous RelA of untransfected HeLa cells (human), Q04206; assay: co-immunoprecipitation from HeLa whole cell lysates (anti-HDAC3 IP, anti-RelA blot)
[8] = biological target: full length RelA (mammalian two-hybrid construct), Q04206; assay: mammalian two-hybrid assay
[9] = biological target: T1, deacetylated T7-RelA (from 293T cells co-transfected with p300 and HDAC3), Q04206; assay: GST pull-down (FIG. 4A)
[10] = biological target: T1, deacetylated T7-RelA (from 293T cells …); assay: GST pull-down of T7-RelA from 293T lysates, anti-T7 blot
T7-RelA, Q04206 [11] = assay: GST pull-down of T7-RelA from 293T lysate without p300 (lane 2, reference), anti-T7 blot

binding (T7-RelA, Q04206 [1]): binds
binding (T7-RelA, Q04206 [2]): binds
binding (T7-RelA, Q04206 [3]): binds
binding (T7-RelA, Q04206 [4]): binds
B1: HDAC3-Flag, O15379 1-428 (enzyme, UniProt O15379 1-428, looked up, not shown: small tags and cut ends)
chain: MAKTVAYFYDPDVGNFHYGAGHPMKPHRLALTHSLVLHYGLYKKMIVFKPYQASQHDMCRFHSEDYIDFLQRVSPTNMQGFTKSLNAFNVGDDCPVFPGLFEFCSRYTGASLQGATQLNNKICDIAINWAGGLHHAKKFEASGFCYVNDIVIGILELLKYHPRVLYIDIDIHHGDGVQEAFYLTDRVMTVSFHKYGNYFFPGTGDMYEVGAESGRYYCLNVPLRDGIDDQSYKHLFQPVINQVVDFYQPTCIVLQCGADSLGCDRLGCFNLSIRGHGECVEYVKSFNIPLLVLGGGGYTVRNVARCWTYETSLLVEEAISEELPYSEYFEYFAPDFTLHPDVSTRIENQNSRQYLDQIRQTIFENLKMLNHAPSVQIHDVPADLLTYDRTDEADAEERGPEENYSRPEAPNEFYDGDHDNDKESDVEI

binding [5]: binds
binding [6]: binds
binding [7]: binds
B2: endogenous HDAC3 of untransfected HeLa cells, O15379 1-428 (enzyme, human, UniProt O15379 1-428, looked up)
chain: MAKTVAYFYDPDVGNFHYGAGHPMKPHRLALTHSLVLHYGLYKKMIVFKPYQASQHDMCRFHSEDYIDFLQRVSPTNMQGFTKSLNAFNVGDDCPVFPGLFEFCSRYTGASLQGATQLNNKICDIAINWAGGLHHAKKFEASGFCYVNDIVIGILELLKYHPRVLYIDIDIHHGDGVQEAFYLTDRVMTVSFHKYGNYFFPGTGDMYEVGAESGRYYCLNVPLRDGIDDQSYKHLFQPVINQVVDFYQPTCIVLQCGADSLGCDRLGCFNLSIRGHGECVEYVKSFNIPLLVLGGGGYTVRNVARCWTYETSLLVEEAISEELPYSEYFEYFAPDFTLHPDVSTRIENQNSRQYLDQIRQTIFENLKMLNHAPSVQIHDVPADLLTYDRTDEADAEERGPEENYSRPEAPNEFYDGDHDNDKESDVEI

Second part, the binder before the results:

B3: HDAC3 (mammalian two-hybrid construct), O15379 1-428 (enzyme, UniProt O15379 1-428, looked up, not shown: large carriers)
chain: MAKTVAYFYDPDVGNFHYGAGHPMKPHRLALTHSLVLHYGLYKKMIVFKPYQASQHDMCRFHSEDYIDFLQRVSPTNMQGFTKSLNAFNVGDDCPVFPGLFEFCSRYTGASLQGATQLNNKICDIAINWAGGLHHAKKFEASGFCYVNDIVIGILELLKYHPRVLYIDIDIHHGDGVQEAFYLTDRVMTVSFHKYGNYFFPGTGDMYEVGAESGRYYCLNVPLRDGIDDQSYKHLFQPVINQVVDFYQPTCIVLQCGADSLGCDRLGCFNLSIRGHGECVEYVKSFNIPLLVLGGGGYTVRNVARCWTYETSLLVEEAISEELPYSEYFEYFAPDFTLHPDVSTRIENQNSRQYLDQIRQTIFENLKMLNHAPSVQIHDVPADLLTYDRTDEADAEERGPEENYSRPEAPNEFYDGDHDNDKESDVEI
binding [8]: binds

B4: GST-IκBα, P25963 1-317 (protein, UniProt P25963 1-317, looked up, not shown: a dimerising Fc or GST)
chain: MFQAAERPQEWAMEGPRDGLKKERLLDDRHDSGLDSMKDEEYEQMVKELQEIRLEPQEVPRGSEPWKQQLTEDGDSFLHLAIIHEEKALTMEVIRQVKGDLAFLNFQNNLQQTPLHLAVITNQPEIAEALLGAGCDPELRDFRGNTPLHLACEQGCLASVGVLTQSCTTPHLHSILKATNYNGHTCLHLASIHGYLGIVELLVSLGADVNAQEPCNGRTALHLAVDLQNPDLVSLLLKCGADVNRVTYQGYSPYQLTWGRPSTRIQQQLGQLTLENLQMLPESEDEESYDTESEFTEFTEDELPYDDCVFGGQRLTL
binding [9]: binds
binding [10]: binds
binding (T7-RelA, Q04206 [11]): binds
